Laboratory results from PubChem BioAssay AID540276 (National Center for Advancing Translational Sciences (NCATS), 2011).
“And” between values parts separate entries of the source, which are not always exact repeats. Equal entries are not always repeated. The campaign covered roughly 300,000 compounds. About 5,400 (1.8%) were called active. Inconclusive results, whose numbers are uncertain, are shown with a selection of clear calls. The call rests on the fitted dose curve; tested in HEK293 cells. Potencies of inconclusive entries are doubtful fits and often do not repeat.

assay: qHTS for inhibitors of binding or entry into cells for Marburg Virus; settings: Marburg virus pseudotyped entry inhibition, cell reporter; activity change, negative = inhibition: at 37.8 µM (top of the series) unless noted
On the % scale 0 is the no-effect control and ±100 the full control effect; potency means the concentration at half of the fitted maximal effect.

Structure (SMILES) | Potency | activity change, negative = inhibition
FC(F)(F)C12CC(c3ccccc3)=NCCN1CCN2 (stereo unspecified) | inconclusive: 6.51 µM [activator, partial curve, poor fit] | –
CCN(C1CCCCC1)S(=O)(=O)c1ccc(S(=O)(=O)NCc2ccncc2)cc1 | inconclusive: 11.6 µM [inhibitor, partial curve, poor fit] | –
COc1ccc(N=C2NN=C(c3c(C)[nH]c4ccccc34)CS2)cc1 | active: 11.2 µM | –
COc1ccc(CNC(=O)/C=C/c2ccc(S(=O)(=O)NCc3ccco3)cc2)cc1OC | inconclusive: 35.5 µM [inhibitor, single point] | –
CCN(CCNC(=O)Nc1ccc(Cl)cc1)c1ccccc1 | inconclusive: 20 µM [inhibitor, single point] | –
Cc1ccc2c(=O)cc(C(=O)N(Cc3ccc(N(C)C)cc3)C3CCS(=O)(=O)C3)oc2c1 (stereo unspecified) | – | inactive: -9.74% [at 46.1 µM]
Cc1ccc(Cl)cc1NC(=S)N(Cc1ccccc1)Cc1cccnc1 | inconclusive: 35.5 µM [inhibitor, single point] | –
COc1ccc(-c2nn(C)c(=O)c3ccccc23)cc1CNC(=O)c1ccco1 | inconclusive: 8.91 µM [inhibitor, partial curve, poor fit] | –
C[C@@H]1C[C@H](O)c2cc(Cl)ccc2N1 | – | inactive: -26.7%
COc1ccc(-c2cc(=NCCCCCC(=O)O)c3cc(C)ccc3o2)cc1 | inactive and inconclusive: 5.62 µM [activator, single point] | –
COc1cccc(-c2nc(CS(=O)(=O)CC(=O)NCC(C)c3ccccc3)c(C)o2)c1 (stereo unspecified) | inconclusive: 8.91 µM [inhibitor, full curve, poor fit] | –
O=C(NCCc1ccccc1)c1n[nH]c(=O)c2ccccc12 | – | inactive: 2.22% [at 46.1 µM]
CCc1ccc(NC(=O)Nc2cccs2)cc1 | inconclusive: 0.708 µM [activator, partial curve, poor fit] | –
COc1ccc(OC)c(Nc2nc(NCc3ccco3)c3ccccc3n2)c1 | active: 12.6 µM | –
CSc1ccc(CCNC(=O)CN2C(=O)c3cccnc3Oc3ccc(C)cc32)cc1 | – | inactive: -8.88% [at 46.1 µM]
Cc1ccnc(-n2c(C)cc(/C=C3\C(=O)NC(=S)N(C)C3=O)c2C)c1 | inconclusive: 35.5 µM [activator, single point] | –
COc1cccc(N2CCN(C(=O)C3CCN(S(=O)(=O)c4c(C)noc4C)CC3)CC2)c1 | – | inactive: -5.03% [at 46.1 µM]
OC1(c2ccc(F)cc2)CC2CCC(C1)N2Cc1nnnn1C1CCCCC1 (stereo unspecified) | inconclusive: 0.164 µM [inhibitor, full curve, poor fit] | –
CCc1cccc2c(C(=O)COC(=O)/C=C/c3ccccc3OC)c[nH]c12 | – | inactive: 15.1%
Cc1ccc(/C=C/C(=O)NCCCc2ccccc2)cc1 | – | inactive: 7.59%
Cc1ccccc1C(C(=O)NC1CCCC1)N(C(=O)Cc1cccs1)c1ccc2c(c1)OCCO2 (stereo unspecified) | inconclusive: 23.1 µM [inhibitor, single point] | –
O=S(=O)(NCc1nc(-c2ccccc2)no1)c1ccc(F)cc1 | – | inactive: 2.82% [at 46.1 µM]
O=C(c1cc2nc(-c3ccccc3)cc(C(F)(F)F)n2n1)N1CCOCC1 | – | inactive: 0.315%
COc1ccc(S(=O)(=O)Nc2ccccc2OC)cc1NC(=O)c1cc2ccccc2oc1=O | inconclusive: 35.5 µM [inhibitor, single point] | –

Structure (SMILES) | Potency | activity change, negative = inhibition
CC1CCC(C(C)C)C(OCC(O)CN2CCOCC2)C1 (stereo unspecified) | inconclusive: 10.3 µM [inhibitor, partial curve] | –
C#CC1(O)C(OC)=CC2C(=O)C1C(c1ccccc1)C2C (stereo unspecified) | – | inactive: -3.5% [at 14.2 µM]
CC(=O)c1cccc(NC(=S)Nc2ccn(Cc3cccc4ccccc34)n2)c1 | inconclusive: 10 µM [inhibitor, partial curve, poor fit] | –
O=C(O)c1ccc(/C=C/c2ccc3cccc(O)c3n2)cc1 | inconclusive: 3.16 µM [activator, single point] | –
N#CSC(c1ccccc1)c1nc2ccccc2[nH]c1=O (stereo unspecified) | inconclusive: 14.1 µM [inhibitor, single point] | –
CCOC(=O)/C(C#N)=C/c1cn(CCOc2ccccc2)c2ccccc12 | inconclusive: 6.31 µM [inhibitor, partial curve, poor fit] | –
CCC(=O)c1cc(F)c(N2CCN(S(=O)(=O)c3ccc(C)cc3)CC2)cc1C | inconclusive: 29.1 µM [inhibitor, single point] | –
COc1cccc(CN2CCNCC2)c1OC | inconclusive: 0.891 µM [inhibitor, single point] | –
Cc1ccc(Cl)cc1NC(=O)CC(O)(C(F)(F)F)C(F)(F)F | inconclusive: 29.1 µM [inhibitor, single point] | –
Cc1cnc(NC(=O)c2cccs2)s1 | inconclusive: 25.1 µM [inhibitor, single point] | –
COCCNS(=O)(=O)c1cc(C)c(C)cc1C | inconclusive: 12.6 µM [activator, partial curve, poor fit] | –
Cc1cccc(NC(=O)CS(=O)(=O)c2nc(-c3ccccc3)cn2-c2cccc(Cl)c2)c1C | – | inactive: -12.3% [at 46.1 µM]
O=C(Nc1ccc(Cc2nc3ccccc3s2)cc1)c1ccncc1 | inconclusive: 10 µM [inhibitor, partial curve, poor fit] | –
CC(C)Cc1nnc(NC(=O)C2CCCC2)s1 | – | inactive: 6.13% [at 46.1 µM]
COc1ccc(NC(=O)CN(Cc2ccccc2)S(C)(=O)=O)cc1OC | inconclusive: 0.562 µM [activator, full curve, poor fit] | –
O=C1CCCC2=C1[C@H]1O[C@](CCCCN3C(=O)c4ccccc4C3=O)(Cc3c1ccc1ccccc31)O2 | – | inactive: -22.6% [at 14.2 µM]
CCOC(=O)C(Cc1ccccc1)NC(=O)CCc1nnc2ccc(N3CCOCC3)nn12 (stereo unspecified) | – | inactive: -8.34% [at 46.1 µM]
COc1ccc(OC)c(NC(=O)CN2CCc3ccccc3C2)c1 | inconclusive: 35.5 µM [inhibitor, single point] | –
CCOC(=O)c1cc(-c2ccc(C)cc2)n(CCC(=O)Nc2ccc(C(C)C)cc2)c1C | inconclusive: 11.2 µM [inhibitor, partial curve, poor fit] | –
Cc1cccc(N2CCN(Cc3nc(-c4ccccc4Cl)oc3C)CC2)n1 | inconclusive: 28.2 µM [inhibitor, single point] | –
C=CCn1c(O)c(/C(C)=N/N2CCCCC2)c(=O)[nH]c1=O | – | inactive: -0.109% [at 14.2 µM]
COC1=C[C@H](C(=O)NC2CCN(Cc3ccccc3)CC2)[C@@]2(C)Cc3ccccc3[C@@H]2CC1=O | – | inactive: -18.2% [at 14.2 µM]
COc1cc2c(cc1OC)C(SC)=NC(C)(C)C2 | inconclusive: 29.1 µM [inhibitor, single point] | –
CC(C)(C)OC(=O)N1CCCC(C(=O)Nc2cccc(C(=O)NCc3ccccc3)c2)C1 (stereo unspecified) | inconclusive: 17.7 µM [activator, single point] | –

Full records as entered above. Order of values: Potency | activity change, negative = inhibition
CCOC(=O)C(Cc1ccccc1)NC(=O)CCc1nnc2ccc(N3CCOCC3)nn12 (stereo unspecified) reads – | inactive: -8.34% [at 46.1 µM]
Cc1cccc(N2CCN(Cc3nc(-c4ccccc4Cl)oc3C)CC2)n1 reads inconclusive: 28.2 µM [inhibitor, single point] | –

The list continues:

Structure (SMILES) | Potency | activity change, negative = inhibition
Oc1ccc(Cl)cc1/C=C/c1ccc2cccc(O)c2n1 | inconclusive: 35.5 µM [inhibitor, single point] | –
CC(C)CN(C(=O)CSc1nn(-c2ccc(Cl)cc2)c(=S)s1)C1CCS(=O)(=O)C1 (stereo unspecified) | inconclusive: 0.447 µM [activator, partial curve, poor fit] | –
Cc1cc(OCC(=O)Nc2ccc3c(c2)OCCO3)cc(C)c1Cl | inconclusive: 5.62 µM [activator, single point] | –
CCOC(=O)c1cnn(-c2cc(Oc3ccccc3)ncn2)c1N | – | inactive: -0.382%
COc1cc(/C=C/C(=O)N2CCN(c3ccccn3)CC2)cc(OC)c1OC | inconclusive: 0.891 µM [inhibitor, single point] | –
Cc1ccc2oc(=O)n(CCCOc3ccc(Cl)cc3)c2c1 | inconclusive: 14.1 µM [inhibitor, partial curve, poor fit] | –
CC(=O)Oc1oc(-c2ccccc2)nc1C=Nc1ccc(N(C)C)cc1 | – | inactive: 10% [at 46.1 µM]
CCCCCCCC(=O)N/N=C(/C)c1c(O)cc(C)oc1=O | – | inactive: -7.88%
O=C(N/N=C/C(Cl)=C/c1ccccc1)c1cnccn1 | – | inactive: 0.85%
Cc1ccc(O)c(C(=O)c2cc(C#N)c(=O)n(Cc3ccccc3)c2)c1 | inconclusive: 5.8 µM [inhibitor, partial curve, poor fit] | –
C/C(CC(=O)Nc1cccc(C(F)(F)F)c1)=N\NC(=O)c1ccncc1 | – | inactive: -7.38% [at 46.1 µM]
Cc1ccccc1NC(=O)c1c(C)nn(-c2ccccc2)c1Cl | inconclusive: 8.91 µM [inhibitor, partial curve, poor fit] | –
CC1(C)CC(=O)C2=C(C1)NCN(Cc1ccc3c(c1)OCO3)C2 | inconclusive: 17.8 µM [activator, single point] | –
CCOc1ccccc1C(=O)Nc1ccsc1C(=O)OC | inconclusive: 2.82 µM [inhibitor, full curve] | –
O=C(NCc1ccccc1)c1c(Cl)nc(Cl)c(Cl)c1Cl | inconclusive: 11.2 µM [inhibitor, partial curve, poor fit] | –
O=C(CN(CC1CCCO1)C(=O)CCC(=O)Nc1nccs1)NCC1CCCO1 (stereo unspecified) | inconclusive: 0.501 µM [activator, partial curve, poor fit] | –
O=C(O)CNC(=O)CC1S/C(=N/N=C2/NC(=O)CS2)NC1=O (stereo unspecified) | – | inactive: -10.5% [at 46.1 µM]
O=[N+]([O-])c1cc(-n2cnnn2)ccc1N1CCC(Cc2ccccc2)CC1 | inconclusive: 29.1 µM [inhibitor, single point] | –
O=C(NCCOCCn1c(=O)oc2ccccc21)Nc1ccc(Cl)cc1 | – | inactive: -6.97% [at 46.1 µM]
CCNc1ccc(-c2nc(-c3ccco3)no2)cc1[N+](=O)[O-] | – | inactive: -7.09% [at 46.1 µM]
Cc1cccc(N(CC(N)=O)S(C)(=O)=O)c1C | – | inactive: -16%
O=C(O)Cc1ccc(NC(=O)C(c2ccccc2)c2ccccc2)cc1 | inconclusive: 22.4 µM [activator, single point] | –
COc1ccc(CNC(=O)Cn2nc(-c3ccc4c(c3)OCCO4)ccc2=O)cc1 | inconclusive: 25.9 µM [inhibitor, single point] | –

Given as labelled records: part of the list above.
Cc1ccc2oc(=O)n(CCCOc3ccc(Cl)cc3)c2c1
  Potency: inconclusive: 14.1 µM [inhibitor, partial curve, poor fit]
CC(=O)Oc1oc(-c2ccccc2)nc1C=Nc1ccc(N(C)C)cc1
  activity change, negative = inhibition: inactive: 10% [at 46.1 µM]
CCCCCCCC(=O)N/N=C(/C)c1c(O)cc(C)oc1=O
  activity change, negative = inhibition: inactive: -7.88%
O=C(N/N=C/C(Cl)=C/c1ccccc1)c1cnccn1
  activity change, negative = inhibition: inactive: 0.85%
